Measurements reported in PubChem BioAssay AID504764 (Drosophila RNAi Screening Center, 2011).

Screen: 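Knock-downs that raise or lower a Notch target reporter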 (primary screen)
Cell system: Drosophila Kc167 cells
Reagents: long dsRNA against Drosophila genes
Time to read-out: about 5 days (4 days dsRNA, then 24 h after transfection)
Treatment: transfection of constitutively active membrane-tethered Notch lacking the extracellular domain, read 24 h later
Measurement: 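Light from a Notch-responsive E(spl)m3 luciferase reporter under active Notch, with control-promoter and no-Notch reporter wells to normalise; raw counts from paired wells a and b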
Direction: induced reporter light, run 1, well a and induced reporter light, run 1, well b: higher = more light from the Notch target reporter with active Notch; control promoter light, run 1, well a and control promoter light, run 1, well b: higher = more light from the viral control promoter (cell number, transfection, viability); uninduced reporter light, run 1, well a: higher = more light from the Notch target reporter without active Notch
Call rule: 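Hit if the duplicate-averaged log2 ratio of induced to control-promoter light gives a plate-wise z beyond ±2, or induced to uninduced beyond ±1.8; weak-control or discordant-duplicate wells dropped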
Calls: active = modifier hit (raised or lowered Notch signal); inactive = not a hit
The screen tested about 22,000 reagents; below is a random part of those that have a named target and a result. Over the whole deposit, 403 (1.9%) were called active. 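Unnormalised raw counts per well; ratio z-scores behind the hit calls and whether each hit raises or lowers signal are not deposited.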 A number with no mark means an inactive call. Reagents against one gene are numbered here. The record does not give: the amount of reagent.

predicted target	reagent no.	induced reporter light, run 1, well a	induced reporter light, run 1, well b	control promoter light, run 1, well a	control promoter light, run 1, well b	uninduced reporter light, run 1, well a
CG43773 (GeneID 33617)	1	96495 (active)	72145	27675	24445	13280
CG43773 (GeneID 33617)	2	1.76e5	1.20e5	1.68e5	1.67e5	9840
Sb (GeneID 41958)	1	2.10e5	2.41e5	1.98e5	2.08e5	18880
CG8388 (GeneID 36763)	1	1.20e5	1.14e5	1.32e5	1.52e5	9420
Prosbeta2 (GeneID 39628)	1	39405	35770	30385	40925	3530
Ssk (GeneID 40207)	1	1.28e5	1.02e5	80525	84105	8610
bowl (GeneID 33602)	1	69050	73150	54595	61860	5055
rho (GeneID 38168)	1	1.30e5	1.43e5	2.13e5	2.66e5	11155
CG4287 (GeneID 41939)	1	1.77e5	1.96e5	2.57e5	2.86e5	12510
CG1971 (GeneID 43755)	1	1.37e5	1.98e5	2.30e5	2.20e5	13920
E(Pc) (GeneID 36238)	1	1.35e5	1.16e5	2.52e5	3.13e5	23195
E(Pc) (GeneID 36238)	2	63080 (active)	47030	97235	93870	6210
Flacc (GeneID 32886)	1	1.14e5	88295	62220	47110	9845
shd (GeneID 39592)	1	1.63e5	1.39e5	2.04e5	1.98e5	9435
Tim8 (GeneID 32081)	1	66190	59365	87730	79195	4755
Pp1alpha-96A (GeneID 42922)	1	1.82e5	2.20e5	2.23e5	2.26e5	15185
CG42365 (GeneID 37469)	1	51020	41790	45955	37155	3238
CG7768 (GeneID 39573)	1	1.41e5	1.43e5	1.19e5	1.26e5	11500
Aps (GeneID 39226)	1	2.05e5	1.78e5	2.58e5	2.20e5	8735
CG9514 (GeneID 32418)	1	1.24e5	1.21e5	1.21e5	1.25e5	13305
CG9514 (GeneID 32418)	2	1.24e5	80860	1.14e5	1.18e5	13695

Single entries from above.
For “control promoter light, run 1, well a”, CG43773 (GeneID 33617) #2 reads 1.68e5
Under “induced reporter light, run 1, well a”, rho (GeneID 38168) reads 1.30e5
